The values that follow come from article PMC13437097.

Experiment [1] addresses T1, SREBP cleavage-activating protein (SCAP) (mouse (endogenous in mouse VSMCs)) (UniProt Q6GQT6).
T1 sequence: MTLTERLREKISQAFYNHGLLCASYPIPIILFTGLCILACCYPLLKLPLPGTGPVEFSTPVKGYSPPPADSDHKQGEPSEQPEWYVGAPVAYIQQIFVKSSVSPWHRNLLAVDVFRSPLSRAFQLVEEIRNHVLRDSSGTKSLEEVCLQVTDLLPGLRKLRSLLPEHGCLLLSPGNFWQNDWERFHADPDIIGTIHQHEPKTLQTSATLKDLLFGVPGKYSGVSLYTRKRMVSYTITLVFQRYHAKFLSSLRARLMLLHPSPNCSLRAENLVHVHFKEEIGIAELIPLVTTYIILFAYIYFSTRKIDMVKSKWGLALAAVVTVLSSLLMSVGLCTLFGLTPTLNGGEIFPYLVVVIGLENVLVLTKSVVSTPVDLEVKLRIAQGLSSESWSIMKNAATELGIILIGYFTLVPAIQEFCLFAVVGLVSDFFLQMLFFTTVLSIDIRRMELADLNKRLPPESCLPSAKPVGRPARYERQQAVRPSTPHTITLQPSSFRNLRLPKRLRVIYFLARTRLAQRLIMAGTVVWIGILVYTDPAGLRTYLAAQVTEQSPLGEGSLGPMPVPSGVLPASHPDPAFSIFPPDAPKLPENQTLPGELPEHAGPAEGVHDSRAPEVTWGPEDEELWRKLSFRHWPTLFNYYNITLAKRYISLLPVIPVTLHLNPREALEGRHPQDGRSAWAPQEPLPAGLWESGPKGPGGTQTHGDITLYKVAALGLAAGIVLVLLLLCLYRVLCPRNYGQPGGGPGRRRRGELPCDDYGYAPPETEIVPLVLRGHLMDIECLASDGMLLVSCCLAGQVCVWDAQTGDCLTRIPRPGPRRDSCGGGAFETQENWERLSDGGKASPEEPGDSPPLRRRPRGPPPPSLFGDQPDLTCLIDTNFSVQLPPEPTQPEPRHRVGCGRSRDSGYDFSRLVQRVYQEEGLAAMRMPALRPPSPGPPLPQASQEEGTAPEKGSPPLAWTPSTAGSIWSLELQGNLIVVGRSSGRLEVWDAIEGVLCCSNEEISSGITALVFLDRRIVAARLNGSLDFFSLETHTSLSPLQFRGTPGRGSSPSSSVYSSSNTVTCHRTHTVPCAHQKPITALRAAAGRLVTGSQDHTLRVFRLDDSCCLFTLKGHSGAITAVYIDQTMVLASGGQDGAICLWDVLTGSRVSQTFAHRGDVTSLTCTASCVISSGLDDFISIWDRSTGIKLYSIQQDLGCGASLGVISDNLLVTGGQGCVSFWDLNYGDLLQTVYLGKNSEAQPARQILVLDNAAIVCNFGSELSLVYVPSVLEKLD
As to the kind of experiment: affinity purification with mass spectrometry; IP with SCAP antibody (Abcam ab153933) from whole cell extracts of control VSMCs (no PDGFBB), magnetic beads, SDS-PAGE, LC-MS/MS.

Experiment [2] deals with T1, SREBP cleavage-activating protein (SCAP) (mouse (endogenous in mouse VSMCs)). As to the kind of experiment: affinity purification with mass spectrometry; IP with SCAP antibody (Abcam ab153933) from whole cell extracts of PDGFBB-treated VSMCs, magnetic beads, SDS-PAGE, LC-MS/MS.

Results are given in words; binding and its absence hold for the method and conditions named. Binding seen in cells or lysates may run through a third protein. These calls come from enrichment with a bait or labelling near it, and not all partners need be listed. For some assays here: No binding means not detected with the bait.

B1: Tripartite motif containing 27 (Trim27) (protein, UniProt Q62158 1-513)
chain: MASGSVAECLQQETTCPVCLQYFVEPMMLDCGHNICCACLARCWGAAETNVSCPQCRETFPQRHMRPNRHLANVTQLVKQLRTERPSGPGGEMGVCEKHREPLKLYCEQDQMPICVVCDRSREHRGHSVLPLEEAVEGFKEQIQNRLDHLRRVKDLKKRRRAQGEQARAELLSLTQMEREKIVWEFEQLYHSLKEHEYRLLARLEELDLAIYNSINGAITQFSCNISHLSGLIAQLEEKQQQPTRELLQDIGDTLSRAERIRIPEPWITPPDLQEKIHIFAQKCLFLTESLKQFTEKMQSDMEKIQELREAQLYSVDVTLDPDTAYPSLILSDNLRQVRYSYLQQDLPDNPERFNLFPCVLGSPCFIAGRHYWEVEVGDKAKWTIGVCEDSVCRKGGVTSAPQNGFWAVSLWYGKEYWALTSPMTALPLRTPLQRVGIFLDYDAGEVSFYNVTERCHTFTFSHATFCGPVRPYFSLSYSGGKSAAPLIICPMSGIDGFSGHVGNHGHSMETSP
On to B1, for which the binding result is “no binding (only cells without PDGFBB)” in experiment [1] and “binds” in experiment [2].
